{"source": "patent US20080213860", "assay_in_all_cases": "enzyme reaction in vitro", "key": {"[1]": {"system": "T1, BsmI R70D (Bacillus stearothermophilus NUB36)", "T1 sequence": "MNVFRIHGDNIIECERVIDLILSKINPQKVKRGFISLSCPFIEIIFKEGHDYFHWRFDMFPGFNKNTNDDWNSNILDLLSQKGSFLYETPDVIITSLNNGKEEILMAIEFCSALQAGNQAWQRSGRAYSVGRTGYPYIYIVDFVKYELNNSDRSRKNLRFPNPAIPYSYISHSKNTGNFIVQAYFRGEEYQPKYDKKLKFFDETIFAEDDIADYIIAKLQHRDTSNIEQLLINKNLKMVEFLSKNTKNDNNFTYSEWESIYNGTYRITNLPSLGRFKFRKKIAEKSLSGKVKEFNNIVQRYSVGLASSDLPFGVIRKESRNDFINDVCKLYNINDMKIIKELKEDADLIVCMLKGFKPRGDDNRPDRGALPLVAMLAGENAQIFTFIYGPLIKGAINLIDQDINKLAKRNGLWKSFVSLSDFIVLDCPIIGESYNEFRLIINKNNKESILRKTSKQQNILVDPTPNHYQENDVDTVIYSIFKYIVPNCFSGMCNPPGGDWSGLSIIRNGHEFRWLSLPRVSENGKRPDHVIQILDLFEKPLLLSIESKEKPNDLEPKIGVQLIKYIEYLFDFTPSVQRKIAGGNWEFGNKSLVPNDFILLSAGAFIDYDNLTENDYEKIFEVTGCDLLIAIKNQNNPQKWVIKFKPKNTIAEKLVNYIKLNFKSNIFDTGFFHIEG", "details": "ds-DNA cleavage; protein in an extract; only the site is given"}, "[2]": {"system": "T2, BsmI R316D (Bacillus stearothermophilus NUB36)", "T2 sequence": "T1 sequence with D70R, R316D", "details": "ds-DNA cleavage; protein in an extract; only the site is given"}, "[3]": {"system": "T3, BsmI R367D (Bacillus stearothermophilus NUB36)", "T3 sequence": "T1 sequence with D70R, R367D", "details": "low nicking activity; protein in an extract; only the site is given"}, "[4]": {"system": "T4, BsmI R526D (Bacillus stearothermophilus NUB36)", "T4 sequence": "T1 sequence with D70R, R526D", "details": "intermediate nicking activity; protein in an extract; only the site is given"}}, "note": "Positions count from the first letter of the chain named. The exact form of at least one protein or probe is not confirmed. For some of these results: Weaker means in comparison with the reference protein, sequence or condition of that experiment. Tags and fusion partners may be left off the protein sequences shown."}
{"sequence": "GCATTC [pBR322 supercoiled plasmid (one BsmI site)]", "values": [{"measurement": "activity on this sequence", "setting": "[1]", "result": "active"}, {"measurement": "activity on this sequence", "setting": "[2]", "result": "active"}, {"measurement": "activity on this sequence", "setting": "[3]", "result": "less active"}, {"measurement": "activity on this sequence", "setting": "[4]", "result": "less active"}]}
